Measured values reported in article doi:10.1101/2023.09.07.556670.

target: FLAG-tagged full-length NS5 of tick-borne encephalitis virus (TBEV) (tick-borne encephalitis virus (TBEV)) (UniProt Q01299); assay: affinity purification with mass spectrometry

Row | Substance | binding
1 | SMARCA4 (from UniProt P51532 1-1647) | binds
2 | ATRX (from UniProt P46100 1-2492) | binds
3 | endogenous TYK2 (from UniProt P29597 1-1187) | binds

No constants are given. Whether binding was seen depends on the method and setting. In cells and extracts the contact can be indirect. Here binding means that the protein was enriched with, or labelled near, the bait; the list need not be complete.
